{"sequences": {"note": "By UniProt entry, the sequences of proteins in these tests, tags left out. Where a name states a change or a piece, a line headed by the entry shows the natural chain unless it says otherwise.", "UniProt Q09472": "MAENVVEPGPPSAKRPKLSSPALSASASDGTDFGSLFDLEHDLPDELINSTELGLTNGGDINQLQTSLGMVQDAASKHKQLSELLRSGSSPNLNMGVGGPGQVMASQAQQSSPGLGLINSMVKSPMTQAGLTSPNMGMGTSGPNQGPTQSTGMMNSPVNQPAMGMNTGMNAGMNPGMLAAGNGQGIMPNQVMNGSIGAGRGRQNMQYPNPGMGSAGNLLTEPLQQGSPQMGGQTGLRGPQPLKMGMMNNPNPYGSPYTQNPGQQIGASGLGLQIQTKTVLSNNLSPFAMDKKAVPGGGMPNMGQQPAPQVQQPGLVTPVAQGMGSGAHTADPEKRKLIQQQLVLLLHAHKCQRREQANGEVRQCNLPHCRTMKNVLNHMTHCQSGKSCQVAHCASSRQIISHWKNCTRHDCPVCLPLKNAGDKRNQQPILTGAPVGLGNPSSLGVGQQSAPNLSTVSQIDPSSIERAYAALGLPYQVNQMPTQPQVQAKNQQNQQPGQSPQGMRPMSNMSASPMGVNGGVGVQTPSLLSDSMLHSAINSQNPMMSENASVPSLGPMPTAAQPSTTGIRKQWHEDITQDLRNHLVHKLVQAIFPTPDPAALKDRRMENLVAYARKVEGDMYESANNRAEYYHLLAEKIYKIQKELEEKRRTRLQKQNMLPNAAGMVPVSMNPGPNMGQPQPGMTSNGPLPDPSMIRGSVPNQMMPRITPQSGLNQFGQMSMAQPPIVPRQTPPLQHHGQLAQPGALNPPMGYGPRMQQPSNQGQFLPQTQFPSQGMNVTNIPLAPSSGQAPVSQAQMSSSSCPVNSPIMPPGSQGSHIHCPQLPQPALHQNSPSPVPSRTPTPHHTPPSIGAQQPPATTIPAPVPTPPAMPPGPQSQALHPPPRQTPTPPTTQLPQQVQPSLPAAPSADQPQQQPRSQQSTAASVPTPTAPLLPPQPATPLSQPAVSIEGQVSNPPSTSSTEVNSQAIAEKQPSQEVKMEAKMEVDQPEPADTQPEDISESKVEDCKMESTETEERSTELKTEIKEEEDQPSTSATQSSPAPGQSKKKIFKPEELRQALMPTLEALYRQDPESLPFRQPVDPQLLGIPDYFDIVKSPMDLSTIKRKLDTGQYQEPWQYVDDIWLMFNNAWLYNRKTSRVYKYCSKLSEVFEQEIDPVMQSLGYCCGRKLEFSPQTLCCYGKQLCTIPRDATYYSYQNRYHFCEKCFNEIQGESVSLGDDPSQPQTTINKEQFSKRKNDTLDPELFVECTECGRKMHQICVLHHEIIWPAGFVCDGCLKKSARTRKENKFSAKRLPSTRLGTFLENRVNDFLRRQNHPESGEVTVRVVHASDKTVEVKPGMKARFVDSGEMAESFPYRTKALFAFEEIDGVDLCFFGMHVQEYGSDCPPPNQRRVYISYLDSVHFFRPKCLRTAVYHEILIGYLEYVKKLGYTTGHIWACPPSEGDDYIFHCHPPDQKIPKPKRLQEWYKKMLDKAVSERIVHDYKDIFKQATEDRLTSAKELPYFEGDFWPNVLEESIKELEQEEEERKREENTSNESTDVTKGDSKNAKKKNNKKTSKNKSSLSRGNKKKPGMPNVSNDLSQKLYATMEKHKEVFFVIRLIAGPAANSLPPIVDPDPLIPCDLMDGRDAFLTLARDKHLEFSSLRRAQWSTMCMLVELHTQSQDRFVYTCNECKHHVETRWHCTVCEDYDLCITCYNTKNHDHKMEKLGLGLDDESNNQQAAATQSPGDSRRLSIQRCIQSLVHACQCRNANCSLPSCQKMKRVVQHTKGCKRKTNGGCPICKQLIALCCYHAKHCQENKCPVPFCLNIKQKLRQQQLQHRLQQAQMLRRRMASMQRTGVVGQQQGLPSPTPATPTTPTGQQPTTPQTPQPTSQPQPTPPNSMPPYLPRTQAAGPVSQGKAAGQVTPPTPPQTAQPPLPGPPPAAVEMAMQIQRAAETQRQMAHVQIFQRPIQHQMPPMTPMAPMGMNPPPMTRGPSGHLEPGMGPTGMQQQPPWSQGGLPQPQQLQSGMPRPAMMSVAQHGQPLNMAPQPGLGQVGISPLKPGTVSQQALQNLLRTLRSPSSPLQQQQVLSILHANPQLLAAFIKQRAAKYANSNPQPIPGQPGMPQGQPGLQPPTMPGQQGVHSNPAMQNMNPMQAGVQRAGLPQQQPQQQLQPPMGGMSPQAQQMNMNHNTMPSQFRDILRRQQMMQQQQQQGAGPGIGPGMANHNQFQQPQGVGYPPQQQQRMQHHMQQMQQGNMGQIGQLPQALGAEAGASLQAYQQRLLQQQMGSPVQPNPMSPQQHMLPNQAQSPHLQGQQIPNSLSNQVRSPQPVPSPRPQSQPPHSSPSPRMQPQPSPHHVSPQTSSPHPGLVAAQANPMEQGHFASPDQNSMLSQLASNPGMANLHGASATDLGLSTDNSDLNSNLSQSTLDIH"}, "source": "paper PMC3284570", "binders": {"B1": {"name": "ZEB1 (co-immunoprecipitated with P300; source not stated) (protein, UniProt P37275 1-1124)", "chain": "MADGPRCKRRKQANPRRNNVTNYNTVVETNSDSDDEDKLHIVEEESVTDAADCEGVPEDDLPTDQTVLPGRSSEREGNAKNCWEDDRKEGQEILGPEAQADEAGCTVKDDECESDAENEQNHDPNVEEFLQQQDTAVIFPEAPEEDQRQGTPEASGHDENGTPDAFSQLLTCPYCDRGYKRFTSLKEHIKYRHEKNEDNFSCSLCSYTFAYRTQLERHMTSHKSGRDQRHVTQSGCNRKFKCTECGKAFKYKHHLKEHLRIHSGEKPYECPNCKKRFSHSGSYSSHISSKKCISLIPVNGRPRTGLKTSQCSSPSLSASPGSPTRPQIRQKIENKPLQEQLSVNQIKTEPVDYEFKPIVVASGINCSTPLQNGVFTGGGPLQATSSPQGMVQAVVLPTVGLVSPISINLSDIQNVLKVAVDGNVIRQVLENNQANLASKEQETINASPIQQGGHSVISAISLPLVDQDGTTKIIINYSLEQPSQLQVVPQNLKKENPVATNSCKSEKLPEDLTVKSEKDKSFEGGVNDSTCLLCDDCPGDINALPELKHYDLKQPTQPPPLPAAEAEKPESSVSSATGDGNLSPSQPPLKNLLSLLKAYYALNAQPSAEELSKIADSVNLPLDVVKKWFEKMQAGQISVQSSEPSSPEPGKVNIPAKNNDQPQSANANEPQDSTVNLQSPLKMTNSPVLPVGSTTNGSRSSTPSPSPLNLSSSRNTQGYLYTAEGAQEEPQVEPLDLSLPKQQGELLERSTITSVYQNSVYSVQEEPLNLSCAKKEPQKDSCVTDSEPVVNVIPPSANPINIAIPTVTAQLPTIVAIADQNSVPCLRALAANKQTILIPQVAYTYSTTVSPAVQEPPLKVIQPNGNQDERQDTSSEGVSNVEDQNDSDSTPPKKKMRKTENGMYACDLCDKIFQKSSSLLRHKYEHTGKRPHECGICKKAFKHKHHLIEHMRLHSGEKPYQCDKCGKRFSHSGSYSQHMNHRYSYCKREAEERDSTEQEEAGPEILSNEHVGARASPSQGDSDERESLTREEDEDSEKEEEEEDKEMEELQEEKECEKPQGDEEEEEEEEEVEEEEVEEAENEGEEAKTEGLMKDDRAESQASSLGQKVGESSEQVSEEKTNEA"}}, "biological_target": "CH3 deleted P300 (HA-tagged) (human) (UniProt Q09472)", "assay": "co-IP; TNE lysates of transfected HuCCT-1 cells; P300 immunoprecipitated, complexes collected on protein G Dynabeads, Western blot; with or without TGF-beta1 (5 ng/mL, 24 hrs)", "note": "No constants are given. Whether binding was seen depends on the method and setting. In cells and extracts the contact can be indirect. A result given as binding can be weak or reduced; the word gives no strength."}
{"binder": "B1", "values": [{"measurement": "binding", "result": "binds"}]}
